Experiment [1] concerns the target T1, Mrc1-YFP (S. cerevisiae), P25588.
T1 chain: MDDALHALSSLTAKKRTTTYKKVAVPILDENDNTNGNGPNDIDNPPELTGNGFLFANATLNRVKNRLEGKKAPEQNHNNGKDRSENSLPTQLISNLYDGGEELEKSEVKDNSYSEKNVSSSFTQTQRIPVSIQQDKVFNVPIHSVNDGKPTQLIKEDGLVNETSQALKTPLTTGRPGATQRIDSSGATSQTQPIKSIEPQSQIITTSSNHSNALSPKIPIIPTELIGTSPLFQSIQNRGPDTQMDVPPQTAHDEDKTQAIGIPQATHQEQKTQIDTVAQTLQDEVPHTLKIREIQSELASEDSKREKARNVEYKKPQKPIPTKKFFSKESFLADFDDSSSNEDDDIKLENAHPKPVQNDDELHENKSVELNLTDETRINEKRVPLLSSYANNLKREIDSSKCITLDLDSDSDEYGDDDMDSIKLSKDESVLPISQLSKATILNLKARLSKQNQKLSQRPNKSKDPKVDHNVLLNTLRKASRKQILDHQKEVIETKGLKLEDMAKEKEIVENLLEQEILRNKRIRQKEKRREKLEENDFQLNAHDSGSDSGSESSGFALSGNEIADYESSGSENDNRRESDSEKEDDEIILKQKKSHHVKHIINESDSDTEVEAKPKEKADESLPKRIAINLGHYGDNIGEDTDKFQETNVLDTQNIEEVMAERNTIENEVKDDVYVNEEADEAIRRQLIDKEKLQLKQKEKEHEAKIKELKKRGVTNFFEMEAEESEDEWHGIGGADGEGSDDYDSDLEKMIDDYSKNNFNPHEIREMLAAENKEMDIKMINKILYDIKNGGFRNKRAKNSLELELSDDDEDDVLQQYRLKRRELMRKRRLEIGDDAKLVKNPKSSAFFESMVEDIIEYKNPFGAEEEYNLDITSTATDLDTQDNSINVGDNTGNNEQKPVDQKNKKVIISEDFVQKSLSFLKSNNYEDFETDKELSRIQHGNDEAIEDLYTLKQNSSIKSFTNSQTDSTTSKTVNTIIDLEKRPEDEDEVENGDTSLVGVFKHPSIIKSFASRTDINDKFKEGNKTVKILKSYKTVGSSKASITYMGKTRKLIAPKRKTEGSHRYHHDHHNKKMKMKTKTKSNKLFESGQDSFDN
The experiment can be described thus: affinity purification with mass spectrometry. Conditions: remark: other sources report otherwise.

In a further experiment the target is T2, Mrc1-YFP (S. cerevisiae) (UniProt P25588).
T2 sequence: T1 chain
Nature of the experiment: affinity purification with mass spectrometry.

Results are given in words; binding and its absence hold for the method and conditions named. Binding seen in cells or lysates may run through a third protein. A yes stands for co-enrichment or nearness to the bait. Other partners may have been found. Where a sequence is shown, tags or fusion partners need not be part of it.

B1: Dpb3, P27344 1-201 (protein)
chain: MSNLVKEKAPVFPISKVKKIAKCDPEYVITSNVAISATAFAAELFVQNLVEESLVLAQLNSKGKTSLRLSLNSIEECVEKRDNFRFLEDAIKQLKKNSALDKKRELNMQPGRSDQEVVIEEPELHEDDGVEEEEEEDEVSEEEEPVHNEELLDDSKDQQNDKSTRSVASLLSRFQYKSALDVGEHSDSSDIEVDHTKSTDP
B1: the binding entry in experiment [1] is “binds”.

B2: Psf1 (protein, UniProt Q12488 1-208)
chain: MYGDLGNKLVLEAKRTKQLYARSNQDVNLPMYHEDIIRNILKEVSNLRKNTEYLKEQQQLGMLDDKVAKCQYFVTLLCMERNKRCLLAYQRLRTDILDSMAWNNNGLDLMSSITFSQQDTNNLSHQEQEYLKEYCDLITDLKSGDLVDIDLSGSLVPPSDVFIDVRVLKDAGEIQTEYGVFNLIKDSQFFVRQSDVERLIQQGYLQKI
For the molecule B2, the binding result with Mrc1-YFP (S. cerevisiae) was “binds”.

The values above are taken from doi:10.1101/2021.09.16.460581.
